The record followed here is PubChem BioAssay AID1347423 (Functional Genomics Laboratory (NCATS/FGL), 2020).

Among all 52,000 sequences or so, about 210 (0.4%) were called active.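 Rule for the calls: active = gene whose silencing raises cell survival under the drug, median off-target-corrected z-score across its silencing RNAs 2 or more; inactive = the rest.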 The list shows a part of the results.

This assay can be described thus: Resistance to Poly (ADP-Ribose) Polymerase inhibitor: Gene Identification via Genome-wide siRNA Screen. As to conditions: mouse BRCA2 R2336H ES cells, olaparib, CellTiter-Glo viability; hits give high values. In a few lines:
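Genome-wide siRNA screen (3 siRNAs/gene, 20 nM) in mouse ES cells carrying hypomorphic BRCA2 R2336H; olaparib 500 nM added 48 h post-transfection, CellTiter-Glo viability 72 h later. Normalized to plate-median negative control; MAD z-scores, gene median, seed-adjusted.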
For the sequence CGAAAUUGCUGACUCAGAATT against Arl6ip6, the z-score was inactive: 0.658.
CCUAACCAUCGACUUCUUCTT against Wfs1: the z-score was inactive: 0.19.
For the sequence GGACUUGACUAGACUUUCUTT against Cops7b, the z-score was inactive: -1.51.
As to GCACGUACUGUUCUAGAAGTT against Kcng4, the z-score was inactive: -1.17.
As to “GGAGCACAGUCUCAUGAAUTT against A130014H13Rik”, the z-score is inactive: 0.604.
As to GGAGUUCGUACCCUUAUCCTT against AW540478, the z-score is inactive: -0.525.
In the case of GGUGACGAUACAGAAAGAGTT against Zfp523, the z-score is inactive: -2.21.
For GCCAUCUACGUGUCAUAGCTT against Siah1b the value was inactive: 0.971; for GGAAGAACCCAGCAAUGUCTT against Lzts2, inactive: 0.0916; for CCCAAUAGUUUCUACUACUTT against Mkks, inactive: -1.31.
GCUAUAAAAAGAGCUCCGCTT against Cox8b: the z-score was inactive: -0.106.
For GGAAUAAAACUUCUGAGAATT against Oog1, the z-score is inactive: 0.00685.
Turning to GGCAAAGUUUAUGAAAUCCTT against Lipg, the z-score was inactive: 1.33.
To CCGCUUACAUCGACUUUGCTT against Tpi1 belongs inactive: -0.224; to GGUAGCAGUGAUAGACACATT against Zfyve1, inactive: -0.456.
For GUUCUUUUUCUUCGGUUCCTT against Olfr1020 the value was inactive: -0.0794.
GCUACCAAAUUCUUUCAGUTT against Prpf8: the z-score is inactive: -2.01.
For “GGUAAAUACAGCAGUCCAGTT against 0610009I22Rik” the value was inactive: -2.04; for GGCAAUGACGAAAUAACCCTT against Il10rb, inactive: -0.191.
In the case of “CCAUCAAGAGGUAUAAUCUTT against A930017E24Rik”, the z-score was inactive: -2.24.
In the case of “GCACUGACGACAAAAGUUCTT against 1500001L15Rik”, the z-score is inactive: -0.816.
“GGUGGAGUCAAAGGAACCCTT against C430004E15Rik”: the z-score was inactive: 0.713.
To GGAGCUAAUCGAGAAAAUGTT against Arl10b belongs inactive: -0.228.
To GGGUUAAGGAACUUUAUGUTT against Cnnm4 belongs inactive: -0.606.
For the sequence “GCACUCUGUUCAGCUAAAATT against 7530404M11Rik”, the z-score was inactive: 0.947.
Regarding CCUUAUCCAGUCACUUUGGTT against Gabra5, the z-score is inactive: 0.564.
For GGGACAUGAGUUUUAAAAUTT against Dazl, the z-score was inactive: 0.889.
For the sequence CCCUAAGAAUCCUUGUUCUTT against V1rd16, the z-score was inactive: 0.503.
In the case of GAUGAAGAAGAGCAGGCUCTT against MGC118210, the z-score is inactive: -0.353.
For CGUACAUCAGAAUGUUAAUTT against Fkbp4 the value was inactive: 0.967.
In the case of GGAAGUGUAUGAUCUCAUGTT against Tyro3, the z-score is inactive: 2.47.
“GGGAAAUGACAAUUGAAAGTT against 4921526G09Rik”: the z-score was inactive: 0.141.
In the case of GGUGUCCACUUAAUUCUGATT against Mmp19, the z-score is inactive: 0.391.
For GGAACUCCACUUUCUUUUUTT against Dscr6 the value was inactive: 1; for CCCAUCUCACUAUUUAAUATT against Lrrc3b, inactive: 0.119; for GGGUUGCUACAAUCAUUGUTT against Scara3, inactive: 0.0261.
Take GCUACAAAGAGUAAAACUGTT against Zfp251: the z-score is inactive: 0.235.
Consider GCAAUAUGCGGAUUUUACCTT against Mtbp, for which the z-score is inactive: 0.245.
GGGACCUAAUCAAUUGUUGTT against Fbxo3: the z-score was inactive: -0.0343.
As for GGACUAUCCAACCUCCUAGTT against Cd47, the z-score is inactive: 0.488.
Consider GGCAUGGAAGGCUAAACAGTT against Slc25a17, for which the z-score is inactive: -0.224.
Turning to GGUUGGAGUUCAACAGAUGTT against Ksr, the z-score was inactive: -2.14.
To GGAGAUAACACCGUUACUUTT against Olfr769 belongs inactive: -1.54; to GGUUCAAGAACUUAAGACATT against Cenpe, inactive: -2.28; to GCGAGUGACACAUCUUCUCTT against Klhl7, inactive: 2.34.
Regarding GCAGGAAUGCGGUAUAAACTT against Inpp5f, the z-score was inactive: 0.822.
Turning to GCCUCUUUAGGCUCUCUUUTT against Hspb6, the z-score was inactive: -1.53.
For the sequence CGUAGUCCUGUAUCCUCUATT against Aip, the z-score is inactive: -0.54.
As for “GGACAUCGAUCCCUUUGACTT against 0610007P22Rik”, the z-score is inactive: -0.0114.
As to GCAGAGACUCCAAAGCUCATT against Chd4, the z-score was inactive: -2.73.
In the case of “GGCAAUUGUUUUUAGAGAGTT against 2610510J17Rik”, the z-score was inactive: 0.946.
With GCUGCACAAGUGAUAUCCGTT against Trim26, the z-score was inactive: 1.05.
With “GGUGUCUCUGAAUGAUGGCTT against 1810009J06Rik”, the z-score is inactive: -0.317.
Regarding GGCUUGUUUUGCCCAGAUGTT against Olfr398, the z-score is inactive: -2.84.
As for UAUAGAACAUGCCAAAUUGTT against Adam26, the z-score was inactive: 0.819.
As to “GGCAUGGAGAGAAGAAAAGTT against 2400009B11Rik”, the z-score is inactive: -0.642.
As to GGUCUUUGAUCUACGAAUGTT against Rhobtb2, the z-score is inactive: -0.616.
For the sequence AAGUCUGAUUGAAGAGGAATT against Gnrh2, the z-score is inactive: -0.378.
For UGAAGAAUAAGGAACUCAUTT against MGC58382, the z-score was inactive: -0.239.
In the case of CGUCUCAACAGAGUUGGAGTT against Hrmt1l1, the z-score is inactive: 0.151.
Regarding GGGUUAAAAACAAAGGACGTT against Adcyap1, the z-score is inactive: 0.414.
Turning to CCUUCUAGAGUACAUCAUATT against Plfr, the z-score was inactive: 0.00345.
GGAGUCGAGUGAUGGUUCATT against Rtl1: the z-score is inactive: -0.667.
Turning to GGAUGCAUGGCUCAGUUAUTT against Olfr143, the z-score is inactive: -0.136.
GGAGAUAAUCCUUGUCACGTT against MGC51670: the z-score was inactive: 0.505.
As to GGGCUUCACUUCCUUAGGATT against Cog3, the z-score was inactive: -1.68.
